Source: PMC4203685
No constants are given. Whether binding was seen depends on the method and setting. In cells and extracts the contact can be indirect. Some binding calls cover weakened binding; strength is not graded here.

The chains behind the UniProt entries cited, without tags or fusion partners.
UniProt P17844: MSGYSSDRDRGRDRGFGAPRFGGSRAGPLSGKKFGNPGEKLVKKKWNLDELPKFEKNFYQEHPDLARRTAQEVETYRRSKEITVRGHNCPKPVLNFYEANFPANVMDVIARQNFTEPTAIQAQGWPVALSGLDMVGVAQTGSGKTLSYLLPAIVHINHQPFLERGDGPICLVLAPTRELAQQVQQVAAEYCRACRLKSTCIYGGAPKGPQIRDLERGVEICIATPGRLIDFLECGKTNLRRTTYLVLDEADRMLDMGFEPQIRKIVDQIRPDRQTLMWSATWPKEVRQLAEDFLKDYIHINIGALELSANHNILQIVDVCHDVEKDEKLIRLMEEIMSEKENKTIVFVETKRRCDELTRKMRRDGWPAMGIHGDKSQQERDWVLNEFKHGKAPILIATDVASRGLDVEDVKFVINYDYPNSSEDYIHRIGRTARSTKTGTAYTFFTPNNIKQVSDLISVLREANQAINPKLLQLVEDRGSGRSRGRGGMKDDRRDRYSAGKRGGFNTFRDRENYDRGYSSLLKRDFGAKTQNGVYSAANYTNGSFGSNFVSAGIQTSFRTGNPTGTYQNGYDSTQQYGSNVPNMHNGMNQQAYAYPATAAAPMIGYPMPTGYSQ

Molecular target: T1, Drosha (human (endogenous in UCI-107 and SKOV3)) (UniProt Q9NRR4)
T1 sequence: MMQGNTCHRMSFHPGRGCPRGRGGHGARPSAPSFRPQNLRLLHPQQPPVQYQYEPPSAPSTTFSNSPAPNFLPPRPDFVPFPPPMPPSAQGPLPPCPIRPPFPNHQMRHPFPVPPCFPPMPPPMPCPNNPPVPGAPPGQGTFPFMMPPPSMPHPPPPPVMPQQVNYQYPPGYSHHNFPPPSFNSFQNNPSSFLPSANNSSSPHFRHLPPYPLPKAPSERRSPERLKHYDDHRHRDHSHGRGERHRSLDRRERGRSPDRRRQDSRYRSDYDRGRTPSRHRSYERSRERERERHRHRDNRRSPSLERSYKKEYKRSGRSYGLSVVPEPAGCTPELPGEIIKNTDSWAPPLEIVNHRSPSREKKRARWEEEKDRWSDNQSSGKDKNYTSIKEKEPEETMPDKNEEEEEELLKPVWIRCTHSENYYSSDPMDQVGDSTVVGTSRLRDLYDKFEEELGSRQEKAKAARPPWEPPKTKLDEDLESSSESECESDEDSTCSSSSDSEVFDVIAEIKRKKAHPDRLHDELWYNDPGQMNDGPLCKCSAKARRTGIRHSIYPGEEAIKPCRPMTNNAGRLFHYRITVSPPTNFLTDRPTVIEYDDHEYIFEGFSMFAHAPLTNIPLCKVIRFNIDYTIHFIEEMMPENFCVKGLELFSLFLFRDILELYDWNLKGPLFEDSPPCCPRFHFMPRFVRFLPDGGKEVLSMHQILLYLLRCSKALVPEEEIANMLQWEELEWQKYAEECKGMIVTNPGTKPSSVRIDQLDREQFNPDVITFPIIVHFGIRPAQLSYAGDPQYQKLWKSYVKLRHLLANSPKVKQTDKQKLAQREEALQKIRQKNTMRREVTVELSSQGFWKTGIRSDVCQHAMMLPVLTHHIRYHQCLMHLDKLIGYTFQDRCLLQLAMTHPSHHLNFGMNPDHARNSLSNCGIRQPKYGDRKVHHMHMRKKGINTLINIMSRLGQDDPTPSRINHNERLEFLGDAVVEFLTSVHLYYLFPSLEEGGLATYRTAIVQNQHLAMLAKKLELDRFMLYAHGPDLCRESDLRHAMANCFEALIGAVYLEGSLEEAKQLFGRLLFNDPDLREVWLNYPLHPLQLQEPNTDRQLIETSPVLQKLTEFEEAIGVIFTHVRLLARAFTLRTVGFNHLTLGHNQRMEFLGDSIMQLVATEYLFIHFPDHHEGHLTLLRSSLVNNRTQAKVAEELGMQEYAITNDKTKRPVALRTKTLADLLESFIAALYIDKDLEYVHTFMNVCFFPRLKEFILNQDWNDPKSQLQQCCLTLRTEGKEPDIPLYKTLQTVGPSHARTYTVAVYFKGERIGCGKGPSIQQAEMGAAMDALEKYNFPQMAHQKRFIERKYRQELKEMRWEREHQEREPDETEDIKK
Experiment: co-IP; UCI-107 cells lysed in RIPA buffer with RNase and protease inhibitors; IP with antibodies to Drosha, DDX5 or p53 (IgG control) on TrueBlot beads, 2 hours at 4°C, three 15 minute washes with lysis buffer; Western blot; cells with or without radiation treatment

binding: binds
Substance: DEAD-box RNA helicase DDX5 (p68) (from UniProt P17844 1-614) (enzyme)
